Some of the results follow.

This test concerns the target T1, OsSMF1 (Oryza sativa, UniProt Q6ZLB0 1-436).
T1 sequence: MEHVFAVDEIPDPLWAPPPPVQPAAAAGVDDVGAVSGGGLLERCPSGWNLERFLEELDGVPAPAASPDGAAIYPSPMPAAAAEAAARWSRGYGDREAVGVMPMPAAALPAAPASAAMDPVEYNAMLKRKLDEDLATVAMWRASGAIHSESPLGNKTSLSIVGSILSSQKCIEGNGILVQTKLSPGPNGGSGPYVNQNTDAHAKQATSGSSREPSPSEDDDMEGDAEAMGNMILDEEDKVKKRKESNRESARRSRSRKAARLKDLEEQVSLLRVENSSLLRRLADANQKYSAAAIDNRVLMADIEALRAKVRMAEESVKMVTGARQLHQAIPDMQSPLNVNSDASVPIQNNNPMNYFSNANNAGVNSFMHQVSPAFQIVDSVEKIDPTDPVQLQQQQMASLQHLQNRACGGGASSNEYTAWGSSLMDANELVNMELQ
As to the kind of experiment: protein-binding microarray (RPBM); PBS, 2% BSA, 51.3 ng/ul salmon testes DNA, 50 uM zinc acetate, 200 nM TF, 25 C, 1 h; high values mean tight binding. The note with it: protein: recombinant; tags: N-terminal polyhistidine and DsRed monomer fusion (pET32a); chain copies: 2; label: CyDye5-dUTP incorporated in the synthesized complementary strand; 3' TTTTT single-stranded linker to array surface; dsDNA, one strand shown. Put shortly:
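In PBS with 2% BSA, salmon testes DNA and 50 µM zinc acetate, 200 nM protein was incubated on a custom Agilent array at 25 °C for 1 h and then washed off. The array had been made double-stranded by primer extension with Cy5-dUTP and blocked with 2% BSA. The proteins were transcription factors fused N-terminally to polyhistidine and DsRed, expressed in E. coli BL21-CodonPlus and purified on Ni–NTA. The binding signal is per-feature fluorescence intensity (arbitrary units) from an Axon 4000B scanner.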
“GGGCCCACATGCCAGCTCCTCCATCTCTATTCCACCACGACGGAGTCACCTAGTGCAG”: the binding signal was 3770 fluorescence intensity (a.u.).

Consider “CACCACTTCAACGTCGTCCATGGCTGTGTGCGCGGCCACCCGGAGTCACCTAGTGCAG”, for which the binding signal was 26400 fluorescence intensity (a.u.).

With “CTCCTATCCAGCGCCATCCCCACGTGGGCCCCACGTGTCGCGGAGTCACCTAGTGCAG”, the binding signal was 15800 fluorescence intensity (a.u.).

Consider “GTGATGATTGTTAGTGGATGATGATGTGGCATCTTGTTAACGGAGTCACCTAGTGCAG”, for which the binding signal was 17800 fluorescence intensity (a.u.).

For the sequence “GCCGATCCCCGAGGAGGGCGGCGACGTGGAAGGGGAGGGCCGGAGTCACCTAGTGCAG”, the binding signal was 4090 fluorescence intensity (a.u.).

Consider “TTGTTTTGTGTGCCCGGGGATGAAGTTCCCCACCATAACACGGAGTCACCTAGTGCAG”, for which the binding signal is 21800 fluorescence intensity (a.u.).

For “TTCCTCTCCTCTCTCTCTCACACACACTTTCTACTCTCTCCGGAGTCACCTAGTGCAG”, the binding signal is 28200 fluorescence intensity (a.u.).

For the sequence “TGGAAGTGAGTTGGGTATGAGCTGGATCGCGTGAAATAGTCGGAGTCACCTAGTGCAG”, the binding signal is 4790 fluorescence intensity (a.u.).

For the sequence “TCTTATTTATGTGCATCCCTCGCTATGACTAATCTTGTCTCGGAGTCACCTAGTGCAG”, the binding signal was 3540 fluorescence intensity (a.u.).

In the case of “AGATAAAAGAGTATTTCAATACGGAATGATCTTGCAGCGTCGGAGTCACCTAGTGCAG”, the binding signal is 3710 fluorescence intensity (a.u.).

Regarding “ACCGCAGAGACACCGCGTGGGACCCACGCGCCATCGTGTACGGAGTCACCTAGTGCAG”, the binding signal was 3350 fluorescence intensity (a.u.).

As for “TCGGATCTAATTGCCACGTAAACGCCACTTCAATGACATGCGGAGTCACCTAGTGCAG”, the binding signal is 6780 fluorescence intensity (a.u.).

As to “TCTGACCCGCCGGTGGCCAAACTCCGCCGCCACCACGAACCGGAGTCACCTAGTGCAG”, the binding signal is 3260 fluorescence intensity (a.u.).

As to “GACGGTAACTGCTGCGTCCACTATGACGTGTTCTGTTCGGCGGAGTCACCTAGTGCAG”, the binding signal was 9720 fluorescence intensity (a.u.).

For the sequence “CACAATATCAATTTTCTCGCTAAGACATTGACCAGTCAACCGGAGTCACCTAGTGCAG”, the binding signal is 3340 fluorescence intensity (a.u.).

Regarding “AGGGCCCCGGCCCCGGCCTCACGTGGCGGCCGCCCGACCCCGGAGTCACCTAGTGCAG”, the binding signal is 6200 fluorescence intensity (a.u.).

Consider “ACCTTCTAGTATTCTCCCGTCCAGCGCATCTGGACCGTCCCGGAGTCACCTAGTGCAG”, for which the binding signal was 3410 fluorescence intensity (a.u.).

For “GAGGAAGAAGAATAGATAATAGAGGCTGACATGTGGGCCCCGGAGTCACCTAGTGCAG”, the binding signal is 3260 fluorescence intensity (a.u.).

For “GTACTATATGACTGGTGTTACTCTCTAGTTTGTATCCAATCGGAGTCACCTAGTGCAG”, the binding signal is 3400 fluorescence intensity (a.u.).

For the sequence “GGCTCATCTTATCATCATTGCATCACAACAAATCTACATGCGGAGTCACCTAGTGCAG”, the binding signal was 3450 fluorescence intensity (a.u.).

As to “GGTTGGGCGGGCGAGGAGGTGTGCCACGTCAGAATTTTGCCGGAGTCACCTAGTGCAG”, the binding signal was 20200 fluorescence intensity (a.u.).

Regarding “TTTTATTAACTGTAAACGTCACATGTTCTGTCATACGCGTCGGAGTCACCTAGTGCAG”, the binding signal is 4910 fluorescence intensity (a.u.).

For the sequence “GTGGTCAAGAGCTTTGTTTTCTTTGTCACTTTTCATTATTCGGAGTCACCTAGTGCAG”, the binding signal was 3350 fluorescence intensity (a.u.).

In the case of “ATTGGATGCTGAATTGATGAGTACATACGTATACGTATACCGGAGTCACCTAGTGCAG”, the binding signal was 4160 fluorescence intensity (a.u.).

For “CAAATTTTAATCCTAGAAAAGCTTATATTTGAAGGAGAAGCGGAGTCACCTAGTGCAG”, the binding signal was 31100 fluorescence intensity (a.u.).

As to “GTTGTGTATCTATCCTACGTGGCATACTGAGGTAACGCAACGGAGTCACCTAGTGCAG”, the binding signal was 16500 fluorescence intensity (a.u.).

As for “CCTCTCTCTGTGTGTTTGTGTCACACTCACGCTGAGCTTGCGGAGTCACCTAGTGCAG”, the binding signal was 3640 fluorescence intensity (a.u.).

Regarding “GTCTCCACCTGTCCCACGTGGACCAATCACACTCAGCCAGCGGAGTCACCTAGTGCAG”, the binding signal is 7480 fluorescence intensity (a.u.).

Take “CAATTCCCTCTTCGTCGGGTGCATCGGCCGCCCACCAAGCCGGAGTCACCTAGTGCAG”: the binding signal was 7430 fluorescence intensity (a.u.).

On to “TTCCATCGCTATTTATAGGAGTGATATCACACGCAGCAAACGGAGTCACCTAGTGCAG”, for which the binding signal is 3340 fluorescence intensity (a.u.).

For “CACTGGCAACGTCGAGAGCCACTGTGTCACTGGTCGCCGACGGAGTCACCTAGTGCAG”, the binding signal was 4150 fluorescence intensity (a.u.).

Regarding “CGATCCACTCCAATCCAATGTGAAATCTCAGCCCACTCAACGGAGTCACCTAGTGCAG”, the binding signal was 6510 fluorescence intensity (a.u.).

As for “CTCTTCTGGACCTGTCCGTGCGGGATGCTCAAGGCCGGCGCGGAGTCACCTAGTGCAG”, the binding signal is 3210 fluorescence intensity (a.u.).

For the sequence “TTTATGTAAATTTAGCTACAAGTTGCCATGTGTGCTTATCCGGAGTCACCTAGTGCAG”, the binding signal was 3390 fluorescence intensity (a.u.).

As for “CGTGAGGTACGAGAGCGCGGCCTTCTTCGACCAGGCCACGCGGAGTCACCTAGTGCAG”, the binding signal was 3590 fluorescence intensity (a.u.).

Turning to “TATATATATATATATATATATATATATATGTGTGTGTGTGCGGAGTCACCTAGTGCAG”, the binding signal is 3520 fluorescence intensity (a.u.).

Regarding “ACGGTGAACCAAAGCCCACGTCATCGAACGGATACTGTTTCGGAGTCACCTAGTGCAG”, the binding signal is 13000 fluorescence intensity (a.u.).

Take “GCATTCACCTTGCTTGACTGTAATTGAGTCATTGCTGTACCGGAGTCACCTAGTGCAG”: the binding signal was 6490 fluorescence intensity (a.u.).

Take “TTTGTGTGTTTAGTTTCTTACGTTTATAATTTTCTGAGTTCGGAGTCACCTAGTGCAG”: the binding signal is 3210 fluorescence intensity (a.u.).

As to “GCCCATGAGTCCGTGACGGCTTCTTCGCCACCTTCCTCCCCGGAGTCACCTAGTGCAG”, the binding signal was 3300 fluorescence intensity (a.u.).

Consider “AGAAATCAACTTCAAACCTTTATTCTCAACATCAGGAGATCGGAGTCACCTAGTGCAG”, for which the binding signal was 26000 fluorescence intensity (a.u.).

Take “CTGCTTGACCATGGAGTACGTCACAGTTGCTGTCACATGACGGAGTCACCTAGTGCAG”: the binding signal is 5360 fluorescence intensity (a.u.).

Turning to “CATGATACTGTAGATCAAGAAGTTGTAAAATGATAATGAACGGAGTCACCTAGTGCAG”, the binding signal was 23600 fluorescence intensity (a.u.).

As to “AATACTGGATATCTCCGCTTCCACCTCAGTTGATGCGGCGCGGAGTCACCTAGTGCAG”, the binding signal was 3760 fluorescence intensity (a.u.).

“TCGTGCCACTCCAACAACGTCCACATCACCTGCGCGCCGCCGGAGTCACCTAGTGCAG”: the binding signal was 4980 fluorescence intensity (a.u.).

As for “TATGCAACCTTTGATATTGGTACAGTGTTCTTCGACAAAACGGAGTCACCTAGTGCAG”, the binding signal was 36500 fluorescence intensity (a.u.).

Consider “CAAATGAGTCATAAGATGAGACCCACATTCTTATGTTGTTCGGAGTCACCTAGTGCAG”, for which the binding signal is 3550 fluorescence intensity (a.u.).

Consider “TCCAAAACACACATGCCAATTGTCAGCACTCATTTTGCAACGGAGTCACCTAGTGCAG”, for which the binding signal was 3290 fluorescence intensity (a.u.).

Take “GTGGTTTCGCTGCTTGGTCATCACTGCTCCGTCGTCGGCTCGGAGTCACCTAGTGCAG”: the binding signal was 6770 fluorescence intensity (a.u.).

In the case of “CGACTCGCCGGTCGCGTTGGCGGCGGTCTGAGAAGCGCTGCGGAGTCACCTAGTGCAG”, the binding signal was 3150 fluorescence intensity (a.u.).

Turning to “GCTCCTTCAAACACTTCTAAACCGCCACGTGGCACTTTAACGGAGTCACCTAGTGCAG”, the binding signal was 19200 fluorescence intensity (a.u.).

Take “TCACGCGTAGCTTCGCCGCTACGTGGCCTCGCGCACGTTACGGAGTCACCTAGTGCAG”: the binding signal is 5500 fluorescence intensity (a.u.).

Consider “GCGGGCGTCTTCGTCAGCAGCTCCGTCTGCGGTGGCTGCTCGGAGTCACCTAGTGCAG”, for which the binding signal is 5660 fluorescence intensity (a.u.).

Consider “TTATCTGAAGGAATTGGCAAGGTGGCGACAGGGCTCCAATCGGAGTCACCTAGTGCAG”, for which the binding signal is 21600 fluorescence intensity (a.u.).

The record behind these values is publication PMC7819943, “Rice protein-binding microarrays: a tool to detect cis-acting elements near promoter regions in rice”.
